The supplement of paper PMC10849652
Some of the results follow.

Sequences of proteins named here, by UniProt entry; tags and fusion partners are left off. A change or cut given only in a name is not applied to a line headed by its entry.
UniProt Q9Y230, whole entry, looked up: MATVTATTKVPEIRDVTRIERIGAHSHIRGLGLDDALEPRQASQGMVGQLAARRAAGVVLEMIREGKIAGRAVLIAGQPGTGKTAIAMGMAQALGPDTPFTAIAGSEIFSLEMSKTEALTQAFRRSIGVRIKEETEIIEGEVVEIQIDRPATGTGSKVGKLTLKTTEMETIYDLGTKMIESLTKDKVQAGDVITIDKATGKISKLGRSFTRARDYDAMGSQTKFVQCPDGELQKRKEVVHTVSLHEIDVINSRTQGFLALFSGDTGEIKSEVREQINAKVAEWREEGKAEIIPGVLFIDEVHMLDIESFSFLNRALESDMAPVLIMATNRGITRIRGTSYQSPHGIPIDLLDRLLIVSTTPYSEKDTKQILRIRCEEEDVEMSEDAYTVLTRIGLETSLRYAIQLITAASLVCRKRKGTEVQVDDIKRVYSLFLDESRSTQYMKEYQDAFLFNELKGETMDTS
UniProt Q8N122, whole entry, looked up: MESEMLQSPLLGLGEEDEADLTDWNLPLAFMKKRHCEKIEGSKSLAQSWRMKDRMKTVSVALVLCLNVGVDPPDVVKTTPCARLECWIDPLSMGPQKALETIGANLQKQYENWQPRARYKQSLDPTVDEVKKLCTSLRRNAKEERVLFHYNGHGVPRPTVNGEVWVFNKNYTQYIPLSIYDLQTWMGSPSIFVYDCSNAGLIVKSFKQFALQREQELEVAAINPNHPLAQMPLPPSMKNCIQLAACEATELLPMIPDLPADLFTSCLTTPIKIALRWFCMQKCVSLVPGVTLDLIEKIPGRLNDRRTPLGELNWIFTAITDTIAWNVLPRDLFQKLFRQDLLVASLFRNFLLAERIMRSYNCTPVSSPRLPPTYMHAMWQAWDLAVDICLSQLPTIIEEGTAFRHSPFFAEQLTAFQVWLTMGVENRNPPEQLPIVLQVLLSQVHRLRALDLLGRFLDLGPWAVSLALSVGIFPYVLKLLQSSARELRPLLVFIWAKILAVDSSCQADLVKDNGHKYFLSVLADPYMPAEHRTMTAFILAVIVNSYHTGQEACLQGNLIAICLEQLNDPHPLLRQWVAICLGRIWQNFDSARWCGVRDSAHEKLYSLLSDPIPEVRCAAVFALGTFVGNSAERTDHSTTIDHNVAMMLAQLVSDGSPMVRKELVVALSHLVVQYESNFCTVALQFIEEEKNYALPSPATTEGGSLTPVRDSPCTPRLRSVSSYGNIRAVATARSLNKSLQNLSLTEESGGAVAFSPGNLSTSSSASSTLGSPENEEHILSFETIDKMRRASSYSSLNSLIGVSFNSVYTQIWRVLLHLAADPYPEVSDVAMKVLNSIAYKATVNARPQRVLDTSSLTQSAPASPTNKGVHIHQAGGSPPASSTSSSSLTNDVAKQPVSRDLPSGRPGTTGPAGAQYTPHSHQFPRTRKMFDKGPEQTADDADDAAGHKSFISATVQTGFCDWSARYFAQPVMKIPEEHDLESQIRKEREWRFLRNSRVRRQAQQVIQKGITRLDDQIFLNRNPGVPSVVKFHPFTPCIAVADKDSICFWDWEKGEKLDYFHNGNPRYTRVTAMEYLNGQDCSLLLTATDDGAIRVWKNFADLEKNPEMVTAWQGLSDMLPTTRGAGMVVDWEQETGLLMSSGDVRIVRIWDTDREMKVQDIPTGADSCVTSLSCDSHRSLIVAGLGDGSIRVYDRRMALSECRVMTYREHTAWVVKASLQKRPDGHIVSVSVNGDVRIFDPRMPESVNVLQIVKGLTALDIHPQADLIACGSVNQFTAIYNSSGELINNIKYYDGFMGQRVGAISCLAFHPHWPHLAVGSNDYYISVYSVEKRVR
UniProt Q96T51: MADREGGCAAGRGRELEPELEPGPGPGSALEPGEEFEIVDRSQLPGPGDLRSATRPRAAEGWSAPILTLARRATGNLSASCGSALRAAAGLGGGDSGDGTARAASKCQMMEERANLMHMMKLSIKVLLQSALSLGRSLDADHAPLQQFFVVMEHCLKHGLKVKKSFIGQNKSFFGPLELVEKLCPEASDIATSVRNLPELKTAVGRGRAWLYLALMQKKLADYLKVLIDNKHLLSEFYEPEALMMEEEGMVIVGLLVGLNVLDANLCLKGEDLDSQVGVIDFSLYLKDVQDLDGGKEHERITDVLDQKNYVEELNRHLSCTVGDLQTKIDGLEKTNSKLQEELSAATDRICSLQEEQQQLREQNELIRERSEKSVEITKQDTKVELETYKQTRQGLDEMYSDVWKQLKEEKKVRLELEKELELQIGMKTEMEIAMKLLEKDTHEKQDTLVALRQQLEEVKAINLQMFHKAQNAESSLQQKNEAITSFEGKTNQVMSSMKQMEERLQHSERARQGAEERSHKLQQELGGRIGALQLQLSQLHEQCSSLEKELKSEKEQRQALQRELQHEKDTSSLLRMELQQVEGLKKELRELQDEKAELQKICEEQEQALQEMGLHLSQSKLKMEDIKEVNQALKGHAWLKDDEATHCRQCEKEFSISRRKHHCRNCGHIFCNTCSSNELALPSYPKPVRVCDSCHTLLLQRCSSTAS
UniProt Q9Y224: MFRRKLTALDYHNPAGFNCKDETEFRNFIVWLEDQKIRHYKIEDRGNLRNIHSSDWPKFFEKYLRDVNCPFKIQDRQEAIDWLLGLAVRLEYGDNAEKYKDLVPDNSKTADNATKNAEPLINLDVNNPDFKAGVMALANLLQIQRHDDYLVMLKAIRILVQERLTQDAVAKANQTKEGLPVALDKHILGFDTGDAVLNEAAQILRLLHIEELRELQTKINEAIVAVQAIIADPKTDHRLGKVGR
UniProt P29034: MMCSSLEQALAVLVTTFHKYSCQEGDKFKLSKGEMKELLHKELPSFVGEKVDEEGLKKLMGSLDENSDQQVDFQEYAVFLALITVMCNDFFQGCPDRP
UniProt P23297: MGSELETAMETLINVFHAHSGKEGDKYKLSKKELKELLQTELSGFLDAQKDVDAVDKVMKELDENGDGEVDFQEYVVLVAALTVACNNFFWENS
UniProt Q5JTH9: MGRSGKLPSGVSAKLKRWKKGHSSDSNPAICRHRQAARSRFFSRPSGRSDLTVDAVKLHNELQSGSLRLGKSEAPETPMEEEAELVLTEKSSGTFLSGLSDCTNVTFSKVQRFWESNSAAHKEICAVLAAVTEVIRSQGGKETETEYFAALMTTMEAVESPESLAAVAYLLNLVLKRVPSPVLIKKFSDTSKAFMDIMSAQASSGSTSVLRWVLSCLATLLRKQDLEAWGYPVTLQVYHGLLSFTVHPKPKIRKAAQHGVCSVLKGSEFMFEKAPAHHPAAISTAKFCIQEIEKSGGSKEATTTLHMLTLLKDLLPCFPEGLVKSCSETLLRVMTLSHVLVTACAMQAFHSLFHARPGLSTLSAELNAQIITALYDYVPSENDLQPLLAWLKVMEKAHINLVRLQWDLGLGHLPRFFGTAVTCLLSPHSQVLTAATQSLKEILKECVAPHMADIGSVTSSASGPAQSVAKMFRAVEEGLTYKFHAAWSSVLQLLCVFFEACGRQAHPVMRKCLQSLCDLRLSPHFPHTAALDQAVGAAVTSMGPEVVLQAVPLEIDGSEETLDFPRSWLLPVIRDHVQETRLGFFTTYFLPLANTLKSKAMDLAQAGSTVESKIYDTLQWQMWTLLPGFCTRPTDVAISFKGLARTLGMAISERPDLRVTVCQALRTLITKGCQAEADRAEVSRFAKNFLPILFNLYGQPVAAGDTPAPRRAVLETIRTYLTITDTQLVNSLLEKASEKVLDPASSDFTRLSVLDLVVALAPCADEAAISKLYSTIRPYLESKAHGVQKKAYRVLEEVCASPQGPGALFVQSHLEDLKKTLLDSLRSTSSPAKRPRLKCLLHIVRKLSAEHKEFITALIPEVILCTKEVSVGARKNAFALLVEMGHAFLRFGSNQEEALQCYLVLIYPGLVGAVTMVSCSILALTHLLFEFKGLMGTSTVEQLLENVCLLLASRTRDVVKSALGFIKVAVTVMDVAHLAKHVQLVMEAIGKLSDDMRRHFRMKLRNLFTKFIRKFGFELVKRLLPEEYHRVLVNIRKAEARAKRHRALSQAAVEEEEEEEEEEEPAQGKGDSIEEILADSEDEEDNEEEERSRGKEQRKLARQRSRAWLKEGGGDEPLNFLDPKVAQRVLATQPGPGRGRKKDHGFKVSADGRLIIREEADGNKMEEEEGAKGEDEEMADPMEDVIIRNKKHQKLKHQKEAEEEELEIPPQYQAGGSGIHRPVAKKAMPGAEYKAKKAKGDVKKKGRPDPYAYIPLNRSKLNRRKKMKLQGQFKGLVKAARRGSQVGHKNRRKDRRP
UniProt Q9P2E9: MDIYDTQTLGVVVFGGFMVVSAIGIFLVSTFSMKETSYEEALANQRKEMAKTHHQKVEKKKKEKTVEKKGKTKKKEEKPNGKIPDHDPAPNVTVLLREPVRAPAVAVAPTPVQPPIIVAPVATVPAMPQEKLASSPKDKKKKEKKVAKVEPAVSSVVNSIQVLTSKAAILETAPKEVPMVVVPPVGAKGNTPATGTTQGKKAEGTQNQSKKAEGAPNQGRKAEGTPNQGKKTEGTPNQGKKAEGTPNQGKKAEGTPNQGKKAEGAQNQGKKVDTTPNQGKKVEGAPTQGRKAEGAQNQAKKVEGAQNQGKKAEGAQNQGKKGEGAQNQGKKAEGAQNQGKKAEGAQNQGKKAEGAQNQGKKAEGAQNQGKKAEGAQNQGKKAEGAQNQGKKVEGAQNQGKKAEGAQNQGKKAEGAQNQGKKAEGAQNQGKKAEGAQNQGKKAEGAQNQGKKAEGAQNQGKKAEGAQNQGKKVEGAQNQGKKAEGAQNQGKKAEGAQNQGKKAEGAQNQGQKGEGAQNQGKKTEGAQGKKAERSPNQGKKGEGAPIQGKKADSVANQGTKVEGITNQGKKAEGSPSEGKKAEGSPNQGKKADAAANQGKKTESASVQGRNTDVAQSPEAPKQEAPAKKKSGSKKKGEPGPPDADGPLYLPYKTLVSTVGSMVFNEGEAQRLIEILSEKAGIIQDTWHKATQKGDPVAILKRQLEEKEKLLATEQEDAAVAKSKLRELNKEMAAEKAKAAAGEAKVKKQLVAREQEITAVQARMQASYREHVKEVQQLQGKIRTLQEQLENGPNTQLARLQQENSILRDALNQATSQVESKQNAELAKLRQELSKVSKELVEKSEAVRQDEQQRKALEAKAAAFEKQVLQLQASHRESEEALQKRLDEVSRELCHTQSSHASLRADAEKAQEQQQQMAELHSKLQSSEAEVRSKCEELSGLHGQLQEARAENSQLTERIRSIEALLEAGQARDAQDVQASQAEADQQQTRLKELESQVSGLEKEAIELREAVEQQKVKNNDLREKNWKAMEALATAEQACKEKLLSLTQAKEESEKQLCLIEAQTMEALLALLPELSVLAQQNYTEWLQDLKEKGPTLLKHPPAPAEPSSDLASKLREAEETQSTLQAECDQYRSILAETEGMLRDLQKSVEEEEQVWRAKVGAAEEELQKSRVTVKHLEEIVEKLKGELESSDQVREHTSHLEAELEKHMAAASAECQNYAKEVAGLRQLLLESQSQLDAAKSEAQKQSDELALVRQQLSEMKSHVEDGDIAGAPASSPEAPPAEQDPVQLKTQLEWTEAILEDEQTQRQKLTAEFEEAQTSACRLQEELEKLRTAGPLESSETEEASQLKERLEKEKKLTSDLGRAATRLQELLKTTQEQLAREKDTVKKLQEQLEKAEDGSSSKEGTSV
UniProt O95059: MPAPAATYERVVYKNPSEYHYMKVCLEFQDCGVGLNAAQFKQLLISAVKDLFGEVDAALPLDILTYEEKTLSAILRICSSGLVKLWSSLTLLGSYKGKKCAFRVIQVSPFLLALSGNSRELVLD

What was measured:
Test in all cases: log2 fold change, soluble protein after heating vs DMSO (PISA); higher = thermal stabilisation; K562 lysate, 10 uM; active = over 0.2 and 3.5 SD of the protein, either way, in both replicates (recomputed)
erlotinib = compound: C#Cc1cccc(Nc2ncnc3cc(OCCOC)c(OCCOC)cc23)c1 [erlotinib]
In short: (§1)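 Following dounce homogenisation of K562 pellets in PBS pH 7.4 with 1 mM MgCl2, crude extract at 1 mg/mL protein was incubated for 30 min with 10 μM compound. Aliquots were then heated for 3 min over 48°C-58°C and pooled, NP-40 was added to 0.5% at 4°C, and soluble protein was recovered as the supernatant at 21,000xg for 90 min. Channel-sum-equalised TMTpro 16plex LC-MS/MS quantified this protein. Each value, from duplicates, is a log-two fold change in thermal stability relative to solvent controls.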

[1] = compound: C/C(=N\NC(=O)C1=CC(=CC=C1)S(=O)(=O)N2CCOCC2)/C3=C(C=CC(=C3)Cl)O
In short: as §1

[2] = compound: C1=CC(=CC=C1C2=NC3=C(N2)C=C(C=C3)C(=O)N)OC4=CC=C(C=C4)Cl
In short: as §1

[3] = compound: C1=CC2=C(C=CC(=C2)/C=C\3/C(=O)NC(=NCC4=CC=CS4)S3)N=C1
In short: as §1

[4] = compound: C1=CC2=NC=CN=C2C=C1/C=C/3\C(=O)NC(=O)S3
In short: as §1

[5] = compound: C1=CC=C(C=C1)C2=NC(=C(N2)C3=CC=NC=C3)C4=CC(=C(C=C4)Cl)O
In short: as §1

[6] = compound: C1=CC=C2C(=C1)C3=NNC4=CC=CC(=C43)C2=O
In short: as §1

[7] = compound: C1CCN(C1)C(=O)NC2=CC=CC(=C2)NC3=NC=C(C(=N3)NCCC4=CN=CN4)Br
In short: as §1

[8] = compound: C1CN(CCC1(CC2=CC=C(C=C2)Cl)N)C3=NC=NC4=C3C=CN4
In short: as §1

IRAK-1-4 Inhibitor I = compound: C1COCCN1CCN2C3=CC=CC=C3N=C2NC(=O)C4=CC(=CC=C4)[N+](=O)[O-] [IRAK-1-4 Inhibitor I]
In short: as §1

ibrutinib = compound: C=CC(=O)N1CCC[C@@H](n2nc(-c3ccc(Oc4ccccc4)cc3)c3c(N)ncnc32)C1 [ibrutinib]
In short: as §1

[9] = compound: CC(=O)c1cnc2ccc(-c3cc(Cl)c(O)c(Cl)c3)nc2c1N[C@H]1CC[C@H](CN(C)C)CC1
In short: as §1

ralimetinib = compound: CC(C)(C)Cn1c(N)nc2ccc(-c3[nH]c(C(C)(C)C)nc3-c3ccc(F)cc3)nc21 [ralimetinib]
In short: as §1

[10] = compound: CC(C)(O)CC(=O)NCCn1ccc2ncnc(Nc3ccc(Oc4cccc(C(F)(F)F)c4)c(Cl)c3)c21
In short: as §1

[11] = compound: CC(C)C1=C2N=C(C=C(N2N=C1)NCC3=CC=CC=C3)NCCCCCCN
In short: as §1

[12] = compound: CC1=C(C(CC(=O)N1)C2=CC=C(C=C2)C(F)(F)F)C(=O)NC3=C(C=C4C(=C3)C=NN4)F
In short: as §1

[13] = compound: CC1=C(C2=C(C=C1)C(=O)C3=CC=CC=C3N2CCCN)C
In short: as §1

[14] = compound: CC1=C(C=C(C=C1)NC(=O)C2=CC(=CC=C2)C(C)(C)C#N)NC3=CC4=C(C=C3)N=CN(C4=O)C
In short: as §1

[15] = compound: CC1=C(C=C(C=C1)NC(=O)C2=CC(=CC=C2)N(C)C)NC(=O)C3=CC=C(C=C3)O
In short: as §1

[16] = compound: CC1=CC=C(C=C1)SC2=C3C=C(SC3=CN=C2)C(=O)N
In short: as §1

Measured: log2 fold change

RPL38 (UniProt P63173)
inactive: erlotinib -0.014 | [1] -0.013 | [2] 0.009 | [3] -0.025 | [4] -0.048 | [5] -0.03 | [6] -0.042 | [7] -0.015 | [8] -0.026 | IRAK-1-4 Inhibitor I 0.021 | ibrutinib -0.014 | [9] -0.013 | ralimetinib -0.028 | [10] -0.034 | [11] 0.011 | [12] -0.015 | [13] 0 | [14] -0.004 | [15] -0.007 | [16] 0.006

RUVBL2 (UniProt Q9Y230)
inactive: erlotinib -0.026 | [1] -0.045 | [2] 0.003 | [3] -0.009 | [4] 0.002 | [5] 0.008 | [6] -0.008 | [7] 0.029 | [8] 0.014 | IRAK-1-4 Inhibitor I 0.013 | ibrutinib 0.005 | [9] -0.013 | ralimetinib -0.013 | [10] -0.022 | [11] -0.013 | [12] -0.034 | [13] 0.003 | [14] 0.017 | [15] -0.009 | [16] 0.015

RPS27L (UniProt Q71UM5)
inactive: erlotinib 0.016 | [1] -0.225 | [2] 0.002 | [3] 0.022 | [4] 0.012 | [5] -0.004 | [6] 0.008 | [7] 0.004 | [8] -0.022 | IRAK-1-4 Inhibitor I -0.007 | ibrutinib 0.062 | [9] 0.021 | ralimetinib 0.02 | [10] 0.011 | [11] -0.008 | [12] 0.031 | [13] -0.049 | [14] 0.007 | [15] -0.049 | [16] 0.067

RPTOR (UniProt Q8N122)
inactive: erlotinib 0.032 | [1] 0.002 | [2] 0.062 | [3] 0.013 | [4] 0.017 | [5] -0.002 | [6] -0.002 | [7] -0.036 | [8] -0.015 | IRAK-1-4 Inhibitor I 0.003 | ibrutinib -0.042 | [9] 0.008 | ralimetinib -0.001 | [10] -0.045 | [11] -0.012 | [12] 0.005 | [13] -0.039 | [14] 0.005 | [15] 0.038 | [16] 0.01

Reprinted at random: 2 records from the list, in no set order.
RPTOR (UniProt Q8N122)
inactive: erlotinib 0.032 | [1] 0.002 | [2] 0.062 | [3] 0.013 | [4] 0.017 | [5] -0.002 | [6] -0.002 | [7] -0.036 | [8] -0.015 | IRAK-1-4 Inhibitor I 0.003 | ibrutinib -0.042 | [9] 0.008 | ralimetinib -0.001 | [10] -0.045 | [11] -0.012 | [12] 0.005 | [13] -0.039 | [14] 0.005 | [15] 0.038 | [16] 0.01

RPS27L (UniProt Q71UM5)
inactive: erlotinib 0.016 | [1] -0.225 | [2] 0.002 | [3] 0.022 | [4] 0.012 | [5] -0.004 | [6] 0.008 | [7] 0.004 | [8] -0.022 | IRAK-1-4 Inhibitor I -0.007 | ibrutinib 0.062 | [9] 0.021 | ralimetinib 0.02 | [10] 0.011 | [11] -0.008 | [12] 0.031 | [13] -0.049 | [14] 0.007 | [15] -0.049 | [16] 0.067

Continued:

RUFY1 (UniProt Q96T51)
inactive: erlotinib -0.02 | [1] -0.016 | [2] 0.014 | [3] 0 | [4] -0.013 | [5] 0.013 | [6] -0.007 | [7] -0.01 | [8] 0.004 | IRAK-1-4 Inhibitor I 0.009 | ibrutinib -0.008 | [9] -0.001 | ralimetinib 0.002 | [10] -0.04 | [11] -0.032 | [12] 0.004 | [13] 0.002 | [14] 0.012 | [15] 0.017 | [16] -0.029

RTRAF (UniProt Q9Y224)
inactive: erlotinib 0.012 | [1] 0.095 | [2] 0.006 | [3] -0.002 | [4] 0.031 | [5] -0.001 | [6] -0.027 | [7] 0.022 | [8] 0.017 | IRAK-1-4 Inhibitor I -0.023 | ibrutinib 0.144 | [9] 0.033 | ralimetinib -0.002 | [10] 0.029 | [11] 0 | [12] -0.018 | [13] 0.011 | [14] -0.019 | [15] -0.025 | [16] 0.005

S100A2 (UniProt P29034)
inactive: erlotinib 0.168 | [1] -0.022 | [2] 0.223 | [3] -0.173 | [4] 0.036 | [5] -0.246 | [6] -0.195 | [7] -0.028 | [8] 0.036 | IRAK-1-4 Inhibitor I 0.17 | ibrutinib -0.14 | [9] -0.039 | ralimetinib 0.088 | [10] -0.537 | [11] 0.027 | [12] -0.178 | [14] 0.319 | [15] -0.094 | [16] -0.107

S100A1 (UniProt P23297)
inactive: erlotinib 0.003 | [1] 0.071 | [2] 0.037 | [3] 0.048 | [5] -0.003 | [6] -0.005 | [7] 0.051 | [8] 0.045 | IRAK-1-4 Inhibitor I -0.051 | [9] 0.005 | ralimetinib 0.001 | [10] -0.049 | [11] 0.024 | [12] 0.274 | [13] 0.076 | [14] -0.022 | [15] -0.009 | [16] -0.023

RRP12 (UniProt Q5JTH9)
inactive: erlotinib 0.064 | [1] -0.012 | [2] -0.049 | [3] 0.016 | [4] -0.022 | [5] 0.037 | [6] 0.084 | [7] -0.008 | [8] 0.017 | IRAK-1-4 Inhibitor I 0.014 | ibrutinib 0.018 | [9] -0.009 | ralimetinib 0.002 | [10] -0.012 | [11] 0.02 | [12] 0.025 | [13] -0.056 | [14] 0.019 | [15] 0.057 | [16] 0.064

RRBP1 isoform 3 (UniProt Q9P2E9)
inactive: erlotinib -0.072 | [1] -0.056 | [2] 0.009 | [3] -0.116 | [4] -0.166 | [5] 0.047 | [6] 0.006 | [7] -0.014 | [8] 0.064 | IRAK-1-4 Inhibitor I 0.011 | ibrutinib -0.067 | ralimetinib -0.015 | [10] 0.029 | [11] 0.014 | [13] 0.046 | [14] -0.004 | [15] -0.027

RPP14 (UniProt O95059)
inactive: erlotinib -0.036 | [1] -0.181 | [2] 0.202 | [3] -0.019 | [4] -0.028 | [5] 0.005 | [6] -0.035 | [7] 0.016 | [8] 0.036 | IRAK-1-4 Inhibitor I -0.038 | ibrutinib 0.017 | [9] -0.006 | ralimetinib 0.059 | [10] -0.016 | [11] -0.018 | [12] -0.068 | [14] 0.058 | [15] 0.008 | [16] 0.008

RPS24 isoform 4 (UniProt P62847)
inactive: erlotinib -0.01 | [1] 0.017 | [2] 0.03 | [3] -0.015 | [4] -0.026 | [5] 0.012 | [6] -0.015 | [7] -0.017 | [8] -0.001 | IRAK-1-4 Inhibitor I -0.016 | ibrutinib -0.018 | [9] -0.058 | ralimetinib -0.02 | [10] -0.048 | [11] -0.004 | [12] -0.017 | [13] -0.102 | [14] 0.008 | [15] 0.032 | [16] 0.016
